Here are results for one molecule from ChEMBL document CHEMBL1126160, “Synthesis and structure-activity relationships of 7-diazabicycloalkylquinolones, including danofloxacin, a new quinolone antibacterial agent for veterinary medicine” (J Med Chem, 1992).

The series can be described thus: Compound was evaluated for aqueous solubility at pH 7.2. The settings on record: buffer.

Molecules are shown by their SMILES. Values after ≈ are worked out from the molar mass of the structure shown.

One may read the solubility as how much of the substance goes into solution per volume. Lower therefore signals a poorly soluble substance.

Regarding `CCn1cc(C(=O)O)c(=O)c2cc(F)c(N3CCN(C)CC3)cc21` [PEFLOXACIN], the concentration in solution (solubility) came to 197 µg/mL (≈ 591 µM).
